Values from PubChem BioAssay AID1508597 (Cure First, 2020)
The deposit covers about 2,100 reagents; shown is an unselected part. 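Calls flag viability under 80% in either arm, not effects specific to rucaparib; the reference for percent is not stated.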 No sequences are given here. Not given: the 100% reference.

Purpose: 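Knock-downs altering ovarian cancer cell survival with or without PARP inhibitor rucaparib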 (primary screen)
Cell system: human ovarian carcinoma lines grown from tumours: OCI-P5x (papillary serous) and OCI-C5x (clear cell)
Reagent: siRNA pool against human genes, 1.25 pmol siRNA per well
Time to read-out: 72 h or 96 h, depending on the cell culture
Treatment: rucaparib 20 µM (about IC30) or vehicle, present until read-out
Measurement: 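Luminescent ATP-based viability assay read 72 or 96 h after transfection, depending on culture, given as normalised percent viability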
Reading the numbers: viability, normalised: higher = more viable cells remaining
Hit rule: 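a well counts as a hit if its normalised viability is under 80 percent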
Calls: active = viability under 80%; inactive = viability 80% or more

gene knocked down | rucaparib or vehicle | cell line | technical replicate | viability, normalised (%) | Call
DLG1 | Rucaparib | OCI-C5x (clear cell) | 1 | 46.9 | active
DLG1 | Rucaparib | OCI-C5x (clear cell) | 2 | 69.6 | active
DLG1 | Rucaparib | OCI-C5x (clear cell) | 3 | 57.1 | active
DLG1 | Rucaparib | OCI-P5x (serous) | 1 | 64.3 | active
DLG1 | Rucaparib | OCI-P5x (serous) | 2 | 92.6 | inactive
DLG1 | Rucaparib | OCI-P5x (serous) | 3 | 96.1 | inactive
DLG1 | Vehicle | OCI-C5x (clear cell) | 1 | 82.6 | inactive
DLG1 | Vehicle | OCI-C5x (clear cell) | 2 | 75.4 | active
DLG1 | Vehicle | OCI-C5x (clear cell) | 3 | 71.4 | active
DLG1 | Vehicle | OCI-P5x (serous) | 1 | 95.3 | inactive
DLG1 | Vehicle | OCI-P5x (serous) | 2 | 72.1 | active
DLG1 | Vehicle | OCI-P5x (serous) | 3 | 78.8 | active
YTHDC2 | Rucaparib | OCI-C5x (clear cell) | 1 | 58.4 | active
YTHDC2 | Rucaparib | OCI-C5x (clear cell) | 2 | 69.6 | active
YTHDC2 | Rucaparib | OCI-C5x (clear cell) | 3 | 37.9 | active
YTHDC2 | Rucaparib | OCI-P5x (serous) | 1 | 91.5 | inactive
YTHDC2 | Rucaparib | OCI-P5x (serous) | 2 | 83.5 | inactive
YTHDC2 | Rucaparib | OCI-P5x (serous) | 3 | 53 | active
YTHDC2 | Vehicle | OCI-C5x (clear cell) | 1 | 46.4 | active
YTHDC2 | Vehicle | OCI-C5x (clear cell) | 2 | 52.9 | active
YTHDC2 | Vehicle | OCI-C5x (clear cell) | 3 | 45.2 | active
YTHDC2 | Vehicle | OCI-P5x (serous) | 1 | 71 | active
YTHDC2 | Vehicle | OCI-P5x (serous) | 2 | 67.9 | active
YTHDC2 | Vehicle | OCI-P5x (serous) | 3 | 88.4 | inactive
